According to PMC10351472:
Results are given in words; binding and its absence hold for the method and conditions named. Binding seen in cells or lysates may run through a third protein. Some entries that bind do so weakly or less than the wild type. Sequences can lack the tags named with a protein.

Amino acid sequences for entries named in this document (tags omitted).
UniProt O95817: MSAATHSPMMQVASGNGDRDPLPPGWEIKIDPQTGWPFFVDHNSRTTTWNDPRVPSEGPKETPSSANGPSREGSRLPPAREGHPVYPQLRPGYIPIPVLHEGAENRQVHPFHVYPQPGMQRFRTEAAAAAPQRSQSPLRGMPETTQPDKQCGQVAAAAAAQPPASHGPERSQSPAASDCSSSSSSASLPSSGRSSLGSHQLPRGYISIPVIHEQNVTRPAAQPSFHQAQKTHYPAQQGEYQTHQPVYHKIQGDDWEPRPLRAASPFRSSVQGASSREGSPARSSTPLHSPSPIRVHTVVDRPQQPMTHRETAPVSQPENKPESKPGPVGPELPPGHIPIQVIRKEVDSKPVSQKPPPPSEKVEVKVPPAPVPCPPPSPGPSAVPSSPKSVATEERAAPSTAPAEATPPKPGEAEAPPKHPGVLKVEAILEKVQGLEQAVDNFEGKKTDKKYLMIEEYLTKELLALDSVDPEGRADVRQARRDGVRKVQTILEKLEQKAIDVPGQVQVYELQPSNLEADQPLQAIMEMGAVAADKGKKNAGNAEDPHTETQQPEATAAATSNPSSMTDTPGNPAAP

T1: V5-tagged HSPB8_WT (heat shock protein family B (small) member 8, wild-type) (human), Q9UJY1
T1 chain: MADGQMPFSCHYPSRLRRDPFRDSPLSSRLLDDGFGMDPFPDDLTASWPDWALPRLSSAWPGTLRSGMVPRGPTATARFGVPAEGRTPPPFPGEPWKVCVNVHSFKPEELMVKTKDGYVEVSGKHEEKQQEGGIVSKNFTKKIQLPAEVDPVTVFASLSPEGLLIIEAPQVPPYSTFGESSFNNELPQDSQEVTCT


Experiments:
[1] = biological target: T1, V5-tagged HSPB8_WT (heat shock protein …); experiment: co-IP; RIPA-soluble extracts of HEK293T-HSPB8-WT-V5 cells transfected with untagged pCi-HSPB8 constructs, 48 h; anti-V5 (D3H8Q) antibody on Protein A magnetic beads; western blot; conditions: remark: other sources report otherwise
[2] = biological target: BAG3 (BAG cochaperone 3) (human (endogenous in HEK293T)) (UniProt O95817); experiment: co-IP; RIPA-soluble extracts of HEK293T-HSPB8-WT-V5 cells transfected with untagged pCi-HSPB8 constructs, 48 h; anti-BAG3 (Abcam ab47124) antibody on Protein A magnetic beads; western blot

binding [1]	binding [2]	Binder
binds	–	untagged HSPB8_WT, Q9UJY1 1-196 (protein) MADGQMPFSCHYPSRLRRDPFRDSPLSSRLLDDGFGMDPFPDDLTASWPDWALPRLSSAWPGTLRSGMVPRGPTATARFGVPAEGRTPPPFPGEPWKVCVNVHSFKPEELMVKTKDGYVEVSGKHEEKQQEGGIVSKNFTKKIQLPAEVDPVTVFASLSPEGLLIIEAPQVPPYSTFGESSFNNELPQDSQEVTCT
–	binds	untagged HSPB8_WT (protein, UniProt Q9UJY1 1-196) MADGQMPFSCHYPSRLRRDPFRDSPLSSRLLDDGFGMDPFPDDLTASWPDWALPRLSSAWPGTLRSGMVPRGPTATARFGVPAEGRTPPPFPGEPWKVCVNVHSFKPEELMVKTKDGYVEVSGKHEEKQQEGGIVSKNFTKKIQLPAEVDPVTVFASLSPEGLLIIEAPQVPPYSTFGESSFNNELPQDSQEVTCT
